Reference: the supplement of paper PMC9015667
Where a name gives a salt, the structure may show the parent alone. The list shows a part of the results. Repeats are few or missing, and single values can be far off.

The compounds below were run on M229P (parental melanoma line) (assay: reduction in cell viability relative to untreated/vehicle; higher = more growth inhibition). Settings: 200 nM; 72 h.

Structure (SMILES)	reduction in cell viability
CCC[C@@H]1C[C@@H](C(=O)N[C@@H]([C@H]2O[C@H](SC)[C@H](O)[C@@H](O)[C@H]2O)[C@H](C)Cl)N(C)C1 [Clindamycin hydrochloride]	< 0%
CCCCOc1ccc(CC(=O)NO)cc1 [Bufexamac]	< 0%
CCCCCNC(=O)N1CCC(CN(Cc2ccc(Cl)cc2)Cc2ccc([N+](=O)[O-])s2)C1 (centres undefined)	< 0%
NC(=O)c1cccc(-c2cccc(OC(=O)NC3CCCCC3)c2)c1	< 0%
COC1=C2C[C@@H](C)C[C@H](OC)[C@H](O)[C@@H](C)/C=C(\C)[C@H](OC(N)=O)[C@@H](OC)/C=C\C=C(/C)C(=O)NC(=CC1=O)C2=O [Geldanamycin]	26.3%
Cn1cc(/C=C/C(=O)c2cccc(F)c2)cc1/C=C/C(=O)NO	< 0%
Clc1ccc(CCC(Cn2ccnc2)Sc2c(Cl)cccc2Cl)cc1 (centres undefined) [Butoconazole nitrate]	< 0%
CCOc1ccc(Nc2nc(-c3c(C)nc4ccccn34)cs2)cc1	36.2%
Nc1nc(=O)n([C@H]2C[C@H](O)[C@@H](CO)O2)cc1F	< 0%
C=CC(=O)N1CCC[C@@H](n2nc(-c3ccc(Oc4ccccc4)cc3)c3c(N)ncnc32)C1	< 0%
O=C1CCCC(=O)C1C(=O)c1ccc(C(F)(F)F)cc1[N+](=O)[O-] [Nitisinone]	< 0%
CCn1c(-c2nonc2N)nc2cnc(Oc3cccc(NC(=O)c4ccc(OCCN5CCOCC5)cc4)c3)cc21	< 0%
CC[C@H](CO)Nc1nc(NCc2ccccc2)c2ncn(C(C)C)c2n1 [Seliciclib]	< 0%
CCOC(=O)N1CCN(/[N+]([O-])=N/Oc2cc(O/N=[N+](\[O-])N3CCN(C(=O)OCC)CC3)c([N+](=O)[O-])cc2[N+](=O)[O-])CC1 [Double JS-K]	< 0%
CN(Cc1cc(Br)cc(Br)c1N)C1CCCCC1 [Bromhexine hydrochloride]	< 0%
Fc1cc(-c2cccc3ncc(-c4cnn(C5CCNCC5)c4)nc23)cc(F)c1CN1CCOCC1	< 0%
COc1ccc(-n2nc(C(N)=O)c3c2C(=O)N(c2ccc(N4CCCCC4=O)cc2)CC3)cc1 [Apixaban]	< 0%
CCCCC(F)(F)[C@@]1(O)CC[C@H]2[C@@H](CC(=O)[C@@H]2CCCCCCC(=O)O)O1 [Lubiprostone]	< 0%
CC[C@]1(O)C[C@@H]2CN(CCc3c([nH]c4ccccc34)[C@@](C(=O)OC)(c3cc4c(cc3OC)N(C)[C@H]3[C@@](O)(C(=O)OC)[C@H](OC(C)=O)[C@]5(CC)C=CCN6CC[C@]43[C@@H]65)C2)C1 [Vinblastine]	33.5%
CCN(CC)CCOc1ccc(C(=C(Cl)c2ccccc2)c2ccccc2)cc1 [Clomifene citrate]	< 0%

Structure (SMILES)	reduction in cell viability
CCN(CC)CCCCNc1nc2cc(Cl)c(Cl)cc2nc1-c1ccc(-c2cccs2)s1	< 0%
NNCCc1ccccc1 [Phenelzine]	< 0%
C[C@H](NC(=O)Cc1cc(F)cc(F)c1)C(=O)N[C@@H]1C(=O)N(C)c2ccccc2-c2ccccc21	< 0%
CCN(CC)CCCC(C)Nc1nc(C)cc(Nc2ccc3nc(C)cc(N)c3c2)n1 (centres undefined)	< 0%
Cc1cc2nc3c(=O)[nH]c(=O)nc-3n(C[C@H](O)[C@H](O)[C@H](O)CO)c2cc1C	< 0%
Nc1ccn([C@@H]2O[C@H](CO)[C@@H](O)[C@H]2O)c(=O)n1 [Cytidine]	4.06%
O=S(=O)(O)CCS [Mesna]	< 0%
CNC(=O)c1cc(Oc2ccc(NC(=O)Nc3ccc(Cl)c(C(F)(F)F)c3)cc2)ccn1 [Sorafenib]	< 0%
O=C(c1ccc(Nc2nccc(-c3cc4ccccc4s3)n2)cc1)N1CCC(N2CCCC2)CC1	8.85%
COC(=O)N1CCN(Cc2cccc(NC(=O)Nc3ccc(C)nc3)c2F)CC1 [Omecamtiv mecarbil]	< 0%
CCC1=C[C@@H]2CN(C1)Cc1c([nH]c3ccccc13)[C@@](C(=O)OC)(c1cc3c(cc1OC)N(C)[C@H]1[C@@](O)(C(=O)OC)[C@H](OC(C)=O)[C@]4(CC)C=CCN5CC[C@]31[C@@H]54)C2 [Vinorelbine tartrate]	39.5%
CC(=O)Nc1cccc(-n2c(=O)n(C3CC3)c(=O)c3c(Nc4ccc(I)cc4F)n(C)c(=O)c(C)c32)c1 [Trametinib]	33.5%
CC(C)=CC[C@@H](O)C1=CC(=O)c2c(O)ccc(O)c2C1=O [Shikonin]	< 0%
CC[C@@H]1/C=C(\C)C[C@H](C)C[C@H](OC)[C@H]2O[C@@](O)(C(=O)C(=O)N3CCCC[C@H]3C(=O)O[C@H](/C(C)=C/[C@@H]3CC[C@H](Cl)[C@H](OC)C3)[C@H](C)[C@@H](O)CC1=O)[C@H](C)C[C@@H]2OC [Pimecrolimus]	< 0%
S=c1nc[nH]c2nc[nH]c12 [6-mercaptopurine]	3.48%
C[C@@H]1CN(c2c(F)c(N)c3c(=O)c(C(=O)O)cn(C4CC4)c3c2F)C[C@H](C)N1 [Sparfloxacin]	< 0%
OCCn1cc(-c2cnc3nnn(Cc4ccc5ncccc5c4)c3n2)cn1	< 0%
Cc1cncc2cccc(S(=O)(=O)N3CCCN(C(=O)CN)C[C@@H]3C)c12 [Glycyl-H-1152]	< 0%
CC(O)(C#Cc1ccc2c(c1)N(c1nc(N)ncc1Cl)CC2)c1nccs1 (centres undefined)	< 0%

An excerpt from above in order of SMILES length, ascending.
Structure (SMILES)	reduction in cell viability
COC(=O)N1CCN(Cc2cccc(NC(=O)Nc3ccc(C)nc3)c2F)CC1 [Omecamtiv mecarbil]	< 0%
Nc1ccn([C@@H]2O[C@H](CO)[C@@H](O)[C@H]2O)c(=O)n1 [Cytidine]	4.06%
CNC(=O)c1cc(Oc2ccc(NC(=O)Nc3ccc(Cl)c(C(F)(F)F)c3)cc2)ccn1 [Sorafenib]	< 0%
